Measurements as given in PMC10816717.

Protein sequences, listed by entry. Tags and fused reporters are not part of them. Residues count along the entry.
UniProt Q14BI2, residues 19-872: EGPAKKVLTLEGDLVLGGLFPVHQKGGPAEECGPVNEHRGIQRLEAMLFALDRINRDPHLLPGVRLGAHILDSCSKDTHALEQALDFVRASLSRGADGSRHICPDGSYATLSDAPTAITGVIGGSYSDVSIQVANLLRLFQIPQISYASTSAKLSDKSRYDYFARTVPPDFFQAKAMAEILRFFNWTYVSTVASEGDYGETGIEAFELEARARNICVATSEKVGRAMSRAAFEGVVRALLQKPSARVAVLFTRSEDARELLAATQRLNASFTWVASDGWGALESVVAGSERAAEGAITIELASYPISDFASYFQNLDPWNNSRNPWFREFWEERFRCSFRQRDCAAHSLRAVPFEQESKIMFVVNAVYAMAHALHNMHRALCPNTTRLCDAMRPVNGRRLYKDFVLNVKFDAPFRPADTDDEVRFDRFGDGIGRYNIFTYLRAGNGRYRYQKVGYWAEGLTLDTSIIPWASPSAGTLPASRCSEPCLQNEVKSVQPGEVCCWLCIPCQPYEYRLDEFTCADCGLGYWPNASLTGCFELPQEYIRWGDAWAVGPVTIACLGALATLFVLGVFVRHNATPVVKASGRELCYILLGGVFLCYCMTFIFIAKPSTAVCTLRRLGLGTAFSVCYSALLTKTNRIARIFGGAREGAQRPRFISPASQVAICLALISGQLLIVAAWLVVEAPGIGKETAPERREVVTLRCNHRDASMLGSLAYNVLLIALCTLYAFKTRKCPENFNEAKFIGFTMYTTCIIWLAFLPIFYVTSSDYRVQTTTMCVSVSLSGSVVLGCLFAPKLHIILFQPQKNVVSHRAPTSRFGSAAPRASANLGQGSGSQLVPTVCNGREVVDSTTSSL
UniProt P97772, residues 21-1199: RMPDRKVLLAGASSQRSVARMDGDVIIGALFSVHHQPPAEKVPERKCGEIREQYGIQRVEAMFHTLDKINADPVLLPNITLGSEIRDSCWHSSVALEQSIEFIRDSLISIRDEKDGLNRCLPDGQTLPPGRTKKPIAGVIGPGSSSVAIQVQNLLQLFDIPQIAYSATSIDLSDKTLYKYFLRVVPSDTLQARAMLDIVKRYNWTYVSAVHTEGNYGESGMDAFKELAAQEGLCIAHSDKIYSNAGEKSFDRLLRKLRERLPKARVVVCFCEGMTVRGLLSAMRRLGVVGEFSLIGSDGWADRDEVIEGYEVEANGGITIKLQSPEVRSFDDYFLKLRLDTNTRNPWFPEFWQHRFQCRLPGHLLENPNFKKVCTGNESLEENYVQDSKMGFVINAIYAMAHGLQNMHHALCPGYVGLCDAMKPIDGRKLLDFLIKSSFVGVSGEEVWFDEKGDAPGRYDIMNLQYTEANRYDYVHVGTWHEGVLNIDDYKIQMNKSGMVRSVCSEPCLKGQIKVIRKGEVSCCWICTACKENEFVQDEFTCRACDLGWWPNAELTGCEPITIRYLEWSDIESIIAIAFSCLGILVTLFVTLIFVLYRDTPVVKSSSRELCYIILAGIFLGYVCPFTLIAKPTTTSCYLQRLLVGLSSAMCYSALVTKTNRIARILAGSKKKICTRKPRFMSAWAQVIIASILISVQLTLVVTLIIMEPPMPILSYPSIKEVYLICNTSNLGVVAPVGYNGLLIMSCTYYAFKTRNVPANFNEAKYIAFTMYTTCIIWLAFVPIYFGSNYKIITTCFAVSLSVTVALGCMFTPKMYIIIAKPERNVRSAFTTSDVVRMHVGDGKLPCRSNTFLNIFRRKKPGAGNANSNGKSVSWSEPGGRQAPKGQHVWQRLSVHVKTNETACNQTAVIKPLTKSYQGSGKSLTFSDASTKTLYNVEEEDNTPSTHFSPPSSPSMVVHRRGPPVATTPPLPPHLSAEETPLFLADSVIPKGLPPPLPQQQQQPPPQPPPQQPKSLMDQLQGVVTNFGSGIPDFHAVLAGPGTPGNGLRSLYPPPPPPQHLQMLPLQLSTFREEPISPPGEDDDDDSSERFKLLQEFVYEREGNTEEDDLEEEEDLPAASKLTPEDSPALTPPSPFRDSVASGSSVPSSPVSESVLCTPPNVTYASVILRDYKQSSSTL
UniProt P15209, residues 32-821: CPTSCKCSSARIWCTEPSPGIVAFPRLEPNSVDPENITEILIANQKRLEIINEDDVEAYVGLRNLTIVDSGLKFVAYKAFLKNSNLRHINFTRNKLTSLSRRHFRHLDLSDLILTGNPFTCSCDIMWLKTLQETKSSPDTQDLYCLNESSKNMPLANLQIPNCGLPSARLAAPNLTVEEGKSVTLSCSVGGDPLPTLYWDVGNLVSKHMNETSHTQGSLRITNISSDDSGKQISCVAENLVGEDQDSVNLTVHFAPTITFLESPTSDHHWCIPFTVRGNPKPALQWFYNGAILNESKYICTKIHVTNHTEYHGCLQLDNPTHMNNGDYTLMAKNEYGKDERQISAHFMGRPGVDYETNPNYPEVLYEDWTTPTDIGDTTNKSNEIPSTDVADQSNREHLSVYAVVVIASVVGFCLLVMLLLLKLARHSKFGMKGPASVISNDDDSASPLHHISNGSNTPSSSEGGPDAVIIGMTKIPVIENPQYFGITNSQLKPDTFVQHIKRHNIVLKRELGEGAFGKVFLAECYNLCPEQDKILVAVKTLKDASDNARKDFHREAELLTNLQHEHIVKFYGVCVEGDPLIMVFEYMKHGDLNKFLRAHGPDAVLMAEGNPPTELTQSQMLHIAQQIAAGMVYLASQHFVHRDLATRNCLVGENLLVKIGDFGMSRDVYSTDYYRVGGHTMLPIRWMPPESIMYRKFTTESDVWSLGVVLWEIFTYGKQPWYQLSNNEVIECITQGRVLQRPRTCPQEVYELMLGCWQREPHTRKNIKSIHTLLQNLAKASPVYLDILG
UniProt Q9QYS2, residues 23-879: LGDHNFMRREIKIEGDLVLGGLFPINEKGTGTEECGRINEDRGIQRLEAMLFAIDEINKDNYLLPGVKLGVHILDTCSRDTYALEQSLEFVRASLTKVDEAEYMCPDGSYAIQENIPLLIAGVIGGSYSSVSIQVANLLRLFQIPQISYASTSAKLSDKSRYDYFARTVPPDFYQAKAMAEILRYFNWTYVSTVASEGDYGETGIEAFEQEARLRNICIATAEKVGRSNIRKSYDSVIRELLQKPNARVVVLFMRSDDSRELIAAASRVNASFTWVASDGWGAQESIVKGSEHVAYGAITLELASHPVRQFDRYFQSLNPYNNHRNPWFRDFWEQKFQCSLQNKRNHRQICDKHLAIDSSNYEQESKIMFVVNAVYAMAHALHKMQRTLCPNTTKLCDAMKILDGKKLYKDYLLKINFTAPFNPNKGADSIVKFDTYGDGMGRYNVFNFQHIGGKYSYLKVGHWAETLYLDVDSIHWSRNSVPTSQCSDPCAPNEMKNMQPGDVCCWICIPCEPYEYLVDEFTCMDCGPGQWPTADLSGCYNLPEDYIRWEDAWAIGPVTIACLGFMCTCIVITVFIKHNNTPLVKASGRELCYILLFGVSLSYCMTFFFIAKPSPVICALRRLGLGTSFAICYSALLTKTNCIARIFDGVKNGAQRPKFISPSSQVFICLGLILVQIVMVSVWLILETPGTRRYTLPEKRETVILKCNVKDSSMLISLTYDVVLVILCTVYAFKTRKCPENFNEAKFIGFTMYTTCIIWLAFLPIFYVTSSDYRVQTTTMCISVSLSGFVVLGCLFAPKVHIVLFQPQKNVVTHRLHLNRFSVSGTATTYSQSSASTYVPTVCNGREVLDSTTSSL
UniProt P47743, residues 34-908: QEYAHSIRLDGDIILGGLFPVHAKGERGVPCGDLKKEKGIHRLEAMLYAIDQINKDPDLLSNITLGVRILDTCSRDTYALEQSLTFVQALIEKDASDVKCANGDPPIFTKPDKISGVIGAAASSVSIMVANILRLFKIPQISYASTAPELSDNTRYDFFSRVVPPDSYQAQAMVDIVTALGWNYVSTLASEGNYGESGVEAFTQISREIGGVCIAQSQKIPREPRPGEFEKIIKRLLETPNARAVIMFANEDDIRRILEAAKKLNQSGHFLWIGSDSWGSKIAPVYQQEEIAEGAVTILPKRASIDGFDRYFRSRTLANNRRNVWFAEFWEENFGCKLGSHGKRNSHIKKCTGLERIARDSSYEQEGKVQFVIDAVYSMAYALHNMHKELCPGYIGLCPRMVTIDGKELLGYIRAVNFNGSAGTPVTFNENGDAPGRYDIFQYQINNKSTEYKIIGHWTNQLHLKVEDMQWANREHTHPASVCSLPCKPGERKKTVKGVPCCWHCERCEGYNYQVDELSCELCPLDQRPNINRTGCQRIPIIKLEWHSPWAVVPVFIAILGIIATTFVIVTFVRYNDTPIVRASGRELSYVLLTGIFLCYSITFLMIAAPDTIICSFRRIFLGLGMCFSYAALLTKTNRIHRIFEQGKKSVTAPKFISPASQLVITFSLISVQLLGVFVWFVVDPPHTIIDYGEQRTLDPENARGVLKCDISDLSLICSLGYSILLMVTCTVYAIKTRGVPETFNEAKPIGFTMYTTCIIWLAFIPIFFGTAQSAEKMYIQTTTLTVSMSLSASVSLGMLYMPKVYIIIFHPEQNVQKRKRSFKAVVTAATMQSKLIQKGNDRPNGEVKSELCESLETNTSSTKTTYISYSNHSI
UniProt Q68ED2, residues 35-915: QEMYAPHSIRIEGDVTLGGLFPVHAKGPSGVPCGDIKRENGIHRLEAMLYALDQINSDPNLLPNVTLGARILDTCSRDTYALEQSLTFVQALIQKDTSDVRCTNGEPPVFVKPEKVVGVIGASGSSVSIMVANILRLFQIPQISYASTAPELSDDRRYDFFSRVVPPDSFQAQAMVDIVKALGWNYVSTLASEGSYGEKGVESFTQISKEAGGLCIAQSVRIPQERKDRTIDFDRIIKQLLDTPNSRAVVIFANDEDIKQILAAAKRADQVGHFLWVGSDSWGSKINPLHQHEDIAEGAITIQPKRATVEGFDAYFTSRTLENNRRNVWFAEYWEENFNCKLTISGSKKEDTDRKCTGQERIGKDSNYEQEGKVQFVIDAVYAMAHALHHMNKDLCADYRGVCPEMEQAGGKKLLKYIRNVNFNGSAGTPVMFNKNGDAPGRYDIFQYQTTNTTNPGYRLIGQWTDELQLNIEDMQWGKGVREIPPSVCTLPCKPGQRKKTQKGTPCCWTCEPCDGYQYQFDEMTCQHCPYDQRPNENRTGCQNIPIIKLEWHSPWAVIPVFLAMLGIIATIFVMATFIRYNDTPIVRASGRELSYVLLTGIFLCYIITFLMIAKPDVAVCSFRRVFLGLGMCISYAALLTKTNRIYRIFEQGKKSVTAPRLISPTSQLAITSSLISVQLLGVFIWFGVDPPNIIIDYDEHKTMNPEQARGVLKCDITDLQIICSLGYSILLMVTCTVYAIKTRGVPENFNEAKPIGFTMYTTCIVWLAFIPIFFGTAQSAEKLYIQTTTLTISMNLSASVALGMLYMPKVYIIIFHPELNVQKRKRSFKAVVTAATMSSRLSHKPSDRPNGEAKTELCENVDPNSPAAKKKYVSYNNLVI

Target: Metabotropic glutamate receptor 2 (mGlu2), endogenous mouse (mouse (endogenous in prefrontal cortex, brain slices and cortical neurons)) (UniProt Q14BI2)
Experiment: affinity purification with mass spectrometry; mouse PFC lysate (2% lauryl maltose neopentyl glycol, 150 mM NaCl, 50 mM tris-HCl pH 7.4), 1 mg protein, anti-mGlu2 nanobody (5 μg) on Ni-NTA agarose beads; washes with 500 mM NaCl; control with a nonimmune nanobody; three biological replicates

binding	Substance
no binding	mGlu1, endogenous mouse (from UniProt P97772 21-1199) (receptor)
binds	BDNF/NT-3 growth factor receptor TrkB, endogenous mouse (from UniProt P15209 32-821)
binds	mGlu3, endogenous mouse (from UniProt Q9QYS2 23-879) (receptor)
binds	mGlu8, endogenous mouse (from UniProt P47743 34-908) (receptor)
binds	mGlu7, endogenous mouse (from UniProt Q68ED2 35-915) (receptor)
binds	subunit 2A of glutamate ionotropic receptor of N-methyl-D-aspartate type, endogenous mouse (from UniProt P35436 23-1464)
binds	subunit 2B of glutamate ionotropic receptor of N-methyl-D-aspartate type, endogenous mouse (from UniProt Q01097 27-1482)

No constants are given. Whether binding was seen depends on the method and setting. In cells and extracts the contact can be indirect. A yes stands for co-enrichment or nearness to the bait. Other partners may have been found. No binding means not detected with the bait.
